Article PMC5196488 (International Journal for Parasitology: Drugs and Drug …, 2016)

Target: T1, S7.1R (Dj-S7.1R) (Dugesia japonica, UniProt O15969)
T1 sequence (O15969 1-478): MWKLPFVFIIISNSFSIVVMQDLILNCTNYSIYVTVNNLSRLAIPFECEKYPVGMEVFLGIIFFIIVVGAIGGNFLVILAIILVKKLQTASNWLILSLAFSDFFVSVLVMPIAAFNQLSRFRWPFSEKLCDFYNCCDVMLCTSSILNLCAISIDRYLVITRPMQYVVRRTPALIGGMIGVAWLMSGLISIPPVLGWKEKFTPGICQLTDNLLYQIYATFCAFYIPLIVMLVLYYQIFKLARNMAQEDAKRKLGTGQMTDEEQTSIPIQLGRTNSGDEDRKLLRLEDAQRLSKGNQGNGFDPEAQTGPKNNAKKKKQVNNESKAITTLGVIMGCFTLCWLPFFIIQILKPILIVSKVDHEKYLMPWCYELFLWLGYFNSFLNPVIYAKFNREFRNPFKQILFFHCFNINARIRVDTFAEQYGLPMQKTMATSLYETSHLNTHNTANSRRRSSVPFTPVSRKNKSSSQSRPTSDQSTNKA
Type: cell-based

IC50: 4.3 ± 0.6 µM
Structure (SMILES): CN1CCC(=C2c3ccccc3C=Cc3ccccc32)CC1 [cyproheptadine]
